Results from patent publication US6887844 (dated 2005).
These are yes or no findings as the source states them, for the method shown. Some binding calls cover weakened binding; strength is not graded here.

Sequences of proteins named here, by UniProt entry; tags and fusion partners are left off. A change or cut given only in a name is not applied to a line headed by its entry. Residues count along the entry.
UniProt P13596, residues 20-208: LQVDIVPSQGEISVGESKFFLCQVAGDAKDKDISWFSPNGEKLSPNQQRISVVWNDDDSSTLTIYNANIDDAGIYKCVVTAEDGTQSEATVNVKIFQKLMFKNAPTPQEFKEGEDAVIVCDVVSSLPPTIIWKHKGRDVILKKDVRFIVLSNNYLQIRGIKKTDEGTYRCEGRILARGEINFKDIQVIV

Biological target: NCAM(20-208), unmutated double Ig domain (Ig1-Ig2) (UniProt P13596)
Assay: gel filtration chromatography, self-association

With “NCAM(20-208), unmutated double Ig domain (Ig1-Ig2) (from UniProt P13596 20-208) (receptor)” as the substance, how does the binding read?
The binding was “binds”.
